Results: PMC11100217
No constants are given. Whether binding was seen depends on the method and setting. Binding seen in cells or lysates may run through a third protein. Some binding calls cover weakened binding; strength is not graded here.

Amino acid sequences for entries named in this document (tags omitted).
UniProt Q91UZ4: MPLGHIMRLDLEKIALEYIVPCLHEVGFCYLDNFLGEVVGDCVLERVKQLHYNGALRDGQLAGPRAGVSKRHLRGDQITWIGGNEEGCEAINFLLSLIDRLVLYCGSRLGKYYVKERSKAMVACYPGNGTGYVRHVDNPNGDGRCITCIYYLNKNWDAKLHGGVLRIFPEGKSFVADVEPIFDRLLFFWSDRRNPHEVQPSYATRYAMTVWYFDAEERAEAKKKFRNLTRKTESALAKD
UniProt P52480: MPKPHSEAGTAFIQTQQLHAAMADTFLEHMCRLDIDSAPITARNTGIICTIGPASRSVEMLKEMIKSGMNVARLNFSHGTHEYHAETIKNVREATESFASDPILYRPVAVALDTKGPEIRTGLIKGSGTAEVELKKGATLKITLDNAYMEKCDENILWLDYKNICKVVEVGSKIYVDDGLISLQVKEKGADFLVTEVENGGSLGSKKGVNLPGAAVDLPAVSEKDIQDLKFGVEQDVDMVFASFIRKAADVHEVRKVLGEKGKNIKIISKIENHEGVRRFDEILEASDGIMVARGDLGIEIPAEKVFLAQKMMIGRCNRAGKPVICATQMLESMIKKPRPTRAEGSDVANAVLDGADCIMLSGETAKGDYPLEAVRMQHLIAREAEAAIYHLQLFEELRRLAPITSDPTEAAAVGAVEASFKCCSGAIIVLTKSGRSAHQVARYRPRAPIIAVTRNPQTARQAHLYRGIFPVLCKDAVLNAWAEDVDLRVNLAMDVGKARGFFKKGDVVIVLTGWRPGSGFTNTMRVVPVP

What was measured:
[1] = target: prolyl hydroxylase EGLN3 (mouse (endogenous in primary mouse brain cells)) (UniProt Q91UZ4); assay: co-IP; cell lysate; primary antibody (EGLN3, PKM2 or IgG) 24 h at 4 °C, protein A + G agarose 2 h at 4 °C, washed with PBS, Western blot; forward and reverse
[2] = target: pyruvate kinase M2 (mouse (endogenous in primary mouse brain cells)) (UniProt P52480); assay: as above

binding [1]	binding [2]	Substance
binds	–	pyruvate kinase M2 (from UniProt P52480 1-531) (enzyme)
–	binds	prolyl hydroxylase EGLN3 (from UniProt Q91UZ4 1-239) (enzyme)
